Values quoted from earlier work in article PMC6797721, “Unveil the Anticancer Potential of Limomene Based Therapeutic Deep Eutectic Solvents” (Scientific Reports, 2019).

Parameters: method as in PMID 26142248, doi:10.1016/j.fluid.2013.06.032
Conditions: cited from earlier work

Structure (SMILES): CC(C)Cc1ccc(C(C)C(=O)O)cc1 (stereo not shown) [IBU, Ibuprofen]
- Solubility in water: ≈ 21 mg L^-1
